The record followed here is publication PMC6195609.

The chains behind the UniProt entries cited, without tags or fusion partners. Where a name states a change or a piece, a line headed by the entry shows the natural chain unless it says otherwise.
UniProt Q5VZM2: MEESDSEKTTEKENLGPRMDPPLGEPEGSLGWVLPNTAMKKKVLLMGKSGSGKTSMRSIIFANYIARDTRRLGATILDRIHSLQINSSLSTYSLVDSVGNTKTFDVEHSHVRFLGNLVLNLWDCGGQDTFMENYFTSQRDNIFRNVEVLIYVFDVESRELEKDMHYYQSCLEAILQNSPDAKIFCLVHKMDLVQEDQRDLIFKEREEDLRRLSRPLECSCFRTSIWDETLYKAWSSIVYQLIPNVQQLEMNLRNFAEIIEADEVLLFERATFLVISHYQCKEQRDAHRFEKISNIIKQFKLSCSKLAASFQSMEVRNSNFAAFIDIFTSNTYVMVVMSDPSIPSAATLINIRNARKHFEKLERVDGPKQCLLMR
UniProt O75140: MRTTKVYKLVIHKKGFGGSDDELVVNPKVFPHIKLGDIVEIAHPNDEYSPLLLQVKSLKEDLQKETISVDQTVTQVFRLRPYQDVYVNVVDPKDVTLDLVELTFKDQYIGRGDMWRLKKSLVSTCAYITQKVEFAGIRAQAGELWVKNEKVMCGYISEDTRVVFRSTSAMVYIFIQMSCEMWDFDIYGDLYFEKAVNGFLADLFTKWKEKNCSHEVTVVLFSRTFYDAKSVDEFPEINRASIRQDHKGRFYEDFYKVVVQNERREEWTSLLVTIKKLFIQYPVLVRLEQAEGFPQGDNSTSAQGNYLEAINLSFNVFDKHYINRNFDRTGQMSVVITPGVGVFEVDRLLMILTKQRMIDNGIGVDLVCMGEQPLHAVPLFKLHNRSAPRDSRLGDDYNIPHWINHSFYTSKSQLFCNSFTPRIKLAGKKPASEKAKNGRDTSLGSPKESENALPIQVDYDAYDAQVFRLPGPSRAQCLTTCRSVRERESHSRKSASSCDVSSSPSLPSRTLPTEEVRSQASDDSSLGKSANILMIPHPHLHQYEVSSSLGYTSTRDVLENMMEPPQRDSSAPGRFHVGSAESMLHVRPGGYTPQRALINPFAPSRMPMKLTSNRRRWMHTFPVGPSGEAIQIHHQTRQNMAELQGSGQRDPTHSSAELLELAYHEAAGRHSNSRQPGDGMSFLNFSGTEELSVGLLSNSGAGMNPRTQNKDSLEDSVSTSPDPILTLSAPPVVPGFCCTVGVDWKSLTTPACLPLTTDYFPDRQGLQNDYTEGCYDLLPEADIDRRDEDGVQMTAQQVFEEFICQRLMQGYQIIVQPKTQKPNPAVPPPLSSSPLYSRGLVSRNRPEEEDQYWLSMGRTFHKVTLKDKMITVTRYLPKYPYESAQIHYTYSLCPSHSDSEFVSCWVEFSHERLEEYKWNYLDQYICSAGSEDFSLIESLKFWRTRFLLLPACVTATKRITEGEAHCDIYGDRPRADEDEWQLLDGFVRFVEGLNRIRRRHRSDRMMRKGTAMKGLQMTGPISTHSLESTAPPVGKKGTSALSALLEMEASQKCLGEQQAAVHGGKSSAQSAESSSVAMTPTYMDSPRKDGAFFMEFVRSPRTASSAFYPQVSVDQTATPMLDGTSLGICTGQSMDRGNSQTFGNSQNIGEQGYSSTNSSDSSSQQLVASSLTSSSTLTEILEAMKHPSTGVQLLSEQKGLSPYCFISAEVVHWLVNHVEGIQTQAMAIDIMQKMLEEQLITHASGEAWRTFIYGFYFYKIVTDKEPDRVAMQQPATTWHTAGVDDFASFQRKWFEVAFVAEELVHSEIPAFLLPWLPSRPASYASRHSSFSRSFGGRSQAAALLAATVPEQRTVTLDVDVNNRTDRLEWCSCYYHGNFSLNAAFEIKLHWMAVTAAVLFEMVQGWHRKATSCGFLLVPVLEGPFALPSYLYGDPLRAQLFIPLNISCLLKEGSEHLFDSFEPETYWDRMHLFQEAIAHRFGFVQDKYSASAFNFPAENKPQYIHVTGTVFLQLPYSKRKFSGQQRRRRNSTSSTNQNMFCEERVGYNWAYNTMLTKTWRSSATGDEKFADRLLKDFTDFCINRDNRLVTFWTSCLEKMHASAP

These are yes or no findings as the source states them, for the method shown. In cells and extracts the contact can be indirect. Some binding calls cover weakened binding; strength is not graded here.

The assay addresses RagB (endogenous) (human (endogenous in HEK293)) (UniProt Q5VZM2). Description: co-IP; HEK293 cells transiently transfected with the components of GATOR1, with or without CA-Src, kinase-dead Src (K295R) or WT-Src, with or without PP2 (5 uM, 24 h); interaction with RagA, RagB or RagC tested (RagC immunoprecipitation in Fig. 4e, f).

For the substance “GATOR1 (transfected components Depdc5, Nprl2 and Nprl3) (from UniProt O75140 1-1603; Q8WTW4 1-380; Q12980 1-569) (complex)”, the binding result was “binds”.
